Results reported in patent US12613234B2, “Structural-profiling of analytes by nanopore trapping” (NANJING UNIVERSITY, priority 2021, dated 2026).

B1: apo-myoglobin: heme-free myoglobin from equine skeletal muscle (protein, UniProt P68082 2-154, looked up)
Myoglobin: GLSDGEWQQVLNVWGKVEADIAGHGQEVLIRLFTGHPETLEKFDKFKHLKTEAEMKASEDLKKHGTVVLTALGGILKKKGHHEAELKPLAQSHATKHKIPIKYLEFISDAIIHVLHSKHPGDFGADAQGAMTKALELFRNDIAAKYKELGFQG
modifications: heme-free apo form
notes: heme-free myoglobin from equine skeletal muscle

How the values were obtained:
M2 MspA [1] = conditions: 10-fold cross-validation
M2 MspA [2] = system: M2 MspA; set-up: species or system Mycobacterium smegmatis; conditions: for amplitude S.D., mean: […] KCl/1.0M CaCl2, +100 mV; for amplitude S.D., mean / current blockade ratio (ΔI/I0), mean / current blockade ratio (ΔI/I0), Step 1, mean / current blockade ratio (ΔI/I0), Step 2, mean: N=3; for current blockade ratio (ΔI/I0), mean: […] KCl/1.0M CaCl2, pH 7.0, +100 mV
[3] = FIG. 80j: lysozyme + holo-myoglobin + ACTR/NCBD complex + apo-myoglobin
[4] = +100 mV, listed as APO-MYOGLOBIN
[5] = +100 mV, independent measurements 1-3

Molecule	true positive rate (TPR), bagged trees model (M2 MspA [1])	factor of improvement of trapping efficiency (τon reduction), asymmetric vs symmetric electrolyte (M2 MspA [2]; +100 mV)	mean ΔI/I0 (M2 MspA [2]; FIG. 80f: lysozyme + holo-myoglobin)	mean ΔI/I0 (M2 MspA [2]; [3])	mean ΔI/I0 (M2 MspA [2]; FIG. 80h: lysozyme + holo-myoglobin + ACTR/NCBD complex)	mean ΔI/I0 (M2 MspA [2]; FIG. 80d: lysozyme only)	amplitude S.D., mean (M2 MspA [2])	current blockade ratio (ΔI/I0), mean (M2 MspA [2])	current blockade ratio (ΔI/I0), mean (M2 MspA [2]; listed as LYSOZYME)	mean ΔI/I0 (M2 MspA [2]; simultaneous sensing of lysozyme, myoglobin and ATCR/NCBD complex (FIG. 75), +100 mV)	nanopore events as the sole analyte (M2 MspA [2]; 0.2 μM in cis, +100 mV)	current blockade ratio (ΔI/I0), Step 1, mean (M2 MspA [2]; +100 mV)	current blockade ratio (ΔI/I0), Step 2, mean (M2 MspA [2]; +100 mV)	current blockade ratio (ΔI/I0), Step 1, mean (M2 MspA [2]; [4])	current blockade ratio (ΔI/I0), Step 2, mean (M2 MspA [2]; [4])	current blockade ratio (ΔI/I0), Step 1 (M2 MspA [2]; [5])	current blockade ratio (ΔI/I0), Step 2 (M2 MspA [2]; [5])	amplitude S.D., mean (M2 MspA [2]; listed as APO-MYOGLOBIN)	ΔI/I0 (M2 MspA [2]; simultaneous sensing of apo-myoglobin ([…]) and holo-myoglobin (0.35 μM), FIG. 89)	mean Amplitude S.D. (M2 MspA [2]; simultaneous sensing of myoglobin and apo-myoglobin (FIG. 73), +100 mV)
lysozyme: lysozyme from chicken egg white, representative basic protein	100%	12	34.5%	33.9%	34.5%	34.2%	6.8 ± 0.3 PA	34.4±0.15%	34.4 ± 0.15%	32.9%										
C=CC1=C(C)c2cc3[n-]c(cc4[n-]c(cc5nc(cc1n2)C(C)=C5C=C)c(C)c4CCC(=O)O)c(CCC(=O)O)c3C.[Fe+2] [Heme, reference compound]											No nanopore events were observed									
B1	99.9%			51.5%			13.6±0.2 PA					51.3±0.2%	89.1±0.3%	51.3 ± 0.2%	89.1 ± 0.3%	51.5% and 51.3% and 51.1%	89.4% and 88.8% and 89.1%	13.6 ± 0.2 PA	50.9%	13.5 pA

Several values for one entry are separate records, joined by “and”; a condition that tells them apart may be missing. Equal entries are not always repeated. Where two headings read alike, the source gives them in different places.
